In PMC8938451:

Tests used:
[1] = molecular target: T1, 6His-StrepII-sfGFP-RUFY3 (human) (UniProt Q7L099); assay: pull-down; 40 ug purified 6His-StrepII-sfGFP proteins mixed with cleared HEK293T lysate and Strep-Tactin Sepharose overnight at 4 °C (25 mM HEPES pH 7.4, 0.2% NP40, 1 mM Mg-ATP, 50 mM potassium acetate); immunoblot for endogenous DIC and p150Glued; only the target purified
T1 sequence: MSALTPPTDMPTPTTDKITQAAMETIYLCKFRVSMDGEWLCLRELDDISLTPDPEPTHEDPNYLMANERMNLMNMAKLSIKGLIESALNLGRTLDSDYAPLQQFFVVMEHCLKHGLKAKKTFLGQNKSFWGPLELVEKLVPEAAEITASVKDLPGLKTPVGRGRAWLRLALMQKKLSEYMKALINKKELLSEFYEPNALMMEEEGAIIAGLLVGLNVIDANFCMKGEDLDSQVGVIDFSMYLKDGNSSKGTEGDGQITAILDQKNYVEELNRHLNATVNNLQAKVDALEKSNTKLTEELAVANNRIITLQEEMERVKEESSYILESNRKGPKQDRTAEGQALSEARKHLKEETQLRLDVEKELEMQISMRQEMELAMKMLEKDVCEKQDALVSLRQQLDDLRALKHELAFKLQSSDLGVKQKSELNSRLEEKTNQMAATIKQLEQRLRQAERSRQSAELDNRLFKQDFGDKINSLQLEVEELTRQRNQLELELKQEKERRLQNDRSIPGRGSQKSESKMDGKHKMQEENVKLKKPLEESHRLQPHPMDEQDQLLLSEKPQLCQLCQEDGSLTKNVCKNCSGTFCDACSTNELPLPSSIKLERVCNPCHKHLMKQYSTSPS

RUFY4-GFP (human) = molecular target: T2, RUFY4-GFP (human) (UniProt Q6ZNE9); assay: co-IP; lysates of HEK293T cells transfected with GFP-tagged proteins, magnetic GFP-Trap 2 h at 4 °C (25 mM HEPES pH 7.4, 0.2% NP-40, 0.5 mM Mg-ATP, 50 mM potassium acetate); immunoblot for endogenous DIC and p150Glued
T2 sequence: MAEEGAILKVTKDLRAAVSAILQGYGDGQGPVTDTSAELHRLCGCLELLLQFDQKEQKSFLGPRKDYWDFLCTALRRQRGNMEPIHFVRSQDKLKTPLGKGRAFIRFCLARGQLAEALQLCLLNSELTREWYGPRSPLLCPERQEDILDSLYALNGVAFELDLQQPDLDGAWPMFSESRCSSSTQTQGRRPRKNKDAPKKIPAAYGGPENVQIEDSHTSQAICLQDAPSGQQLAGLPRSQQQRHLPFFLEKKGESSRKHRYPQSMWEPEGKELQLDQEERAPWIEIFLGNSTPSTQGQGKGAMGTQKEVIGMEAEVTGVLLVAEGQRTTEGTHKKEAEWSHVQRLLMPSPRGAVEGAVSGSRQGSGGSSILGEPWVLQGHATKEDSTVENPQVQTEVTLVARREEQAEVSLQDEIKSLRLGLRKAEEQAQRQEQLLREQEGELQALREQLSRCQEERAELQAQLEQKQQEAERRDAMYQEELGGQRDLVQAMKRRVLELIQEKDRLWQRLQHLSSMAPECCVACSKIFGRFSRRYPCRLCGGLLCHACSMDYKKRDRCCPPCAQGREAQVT

RUFY3.1-GFP (human) = molecular target: T3, RUFY3.1-GFP (human) (UniProt Q7L099); assay: as above
T3 sequence: T1 sequence

Measured: binding

dynein intermediate chain (DIC), endogenous (human (endogenous in HEK293T))
binds: all assays above

Results are given in words; binding and its absence hold for the method and conditions named. In cells and extracts the contact can be indirect. Binding calls can cover weak binding; strength is not graded here. Sequences can lack the tags named with a protein.
